Measured values as given in the supplement of paper PMC8728848.
Some of the results follow.

Key:
Assay in all cases: glycan array binding signal (z-score within array); higher = stronger binding
Details in all cases: glycan notation: IUPAC condensed, linker removed
[1] = target: Neu5Ac(a2-6)Gal(b1-4)GlcNAc(b1-2)Man(a1-3)[Neu5Ac(a2-3)Gal(b1-4)GlcNAc(b1-2)Man(a1-6)]Man(b1-4)GlcNAc(b1-4)GlcNAc
Method in brief: (§1)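 Negative Z-scores can be read as non-binding. The Z-score is calculated within each array and then averaged across arrays of one protein sequence at different concentrations or buffers and across linkers. Arrays, 3228 in all, were curated from the Consortium for Functional Glycomics database and kept only where the protein sequence was available.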

[2] = target: Neu5Ac(a2-6)Gal(b1-4)GlcNAc(b1-2)Man(a1-3)[Neu5Ac(a2-6)Gal(b1-4)GlcNAc(b1-2)Man(a1-6)]Man(b1-4)GlcNAc(b1-4)GlcNAc
Method in brief: as §1

[3] = target: Neu5Ac(a2-6)Gal(b1-4)GlcNAc(b1-2)Man(a1-3)[Neu5Ac(a2-6)Gal(b1-4)GlcNAc(b1-2)Man(a1-6)]Man(b1-4)GlcNAc(b1-4)[Fuc(a1-6)]GlcNAc
Method in brief: as §1

[4] = target: Neu5Ac(a2-6)Gal(b1-4)GlcNAc(b1-2)Man(a1-6)Man(b1-4)GlcNAc(b1-4)GlcNAc
Method in brief: as §1

[5] = target: Neu5Ac(a2-6)Gal(b1-4)GlcNAc(b1-2)Man(a1-6)[Gal(b1-4)GlcNAc(b1-2)Man(a1-3)]Man(b1-4)GlcNAc(b1-4)GlcNAc
Method in brief: as §1

[6] = target: Neu5Ac(a2-6)Gal(b1-4)GlcNAc(b1-2)Man(a1-6)[GlcNAc(b1-2)Man(a1-3)]Man(b1-4)GlcNAc(b1-4)GlcNAc
Method in brief: as §1

[7] = target: Neu5Ac(a2-6)Gal(b1-4)GlcNAc(b1-2)Man(a1-6)[Man(a1-3)]Man(b1-4)GlcNAc(b1-4)GlcNAc
Method in brief: as §1

[8] = target: Neu5Ac(a2-6)Gal(b1-4)GlcNAc(b1-2)[Neu5Ac(a2-6)Gal(b1-4)GlcNAc(b1-4)]Man(a1-3)[GlcNAc(b1-4)][Neu5Ac(a2-6)Gal(b1-4)GlcNAc(b1-2)[Neu5Ac(a2-6)Gal(b1-4)GlcNAc(b1-6)]Man(a1-6)]Man(b1-4)GlcNAc(b1-4)GlcNAc
Method in brief: as §1

[9] = target: Neu5Ac(a2-6)Gal(b1-4)GlcNAc(b1-2)[Neu5Ac(a2-6)Gal(b1-4)GlcNAc(b1-4)]Man(a1-3)[GlcNAc(b1-4)][Neu5Ac(a2-6)Gal(b1-4)GlcNAc(b1-4)Man(a1-6)]Man(b1-4)GlcNAc(b1-4)GlcNAc
Method in brief: as §1

[10] = target: Neu5Ac(a2-6)Gal(b1-4)GlcNAc(b1-2)[Neu5Ac(a2-6)Gal(b1-4)GlcNAc(b1-6)]Man(a1-6)[Neu5Ac(a2-6)Gal(b1-4)GlcNAc(b1-2)Man(a1-3)][GlcNAc(b1-4)]Man(b1-4)GlcNAc(b1-4)GlcNAc
Method in brief: as §1

[11] = target: Neu5Ac(a2-6)Gal(b1-4)GlcNAc(b1-3)Gal(b1-3)GlcNAc
Method in brief: as §1

[12] = target: Neu5Ac(a2-6)Gal(b1-4)GlcNAc(b1-3)Gal(b1-4)GlcNAc
Method in brief: as §1

[13] = target: Neu5Ac(a2-6)Gal(b1-4)GlcNAc(b1-3)Gal(b1-4)GlcNAc(b1-2)Man(a1-3)[Neu5Ac(a2-6)Gal(b1-4)GlcNAc(b1-3)Gal(b1-4)GlcNAc(b1-2)Man(a1-6)]GalNAc
Method in brief: as §1

[14] = target: Neu5Ac(a2-6)Gal(b1-4)GlcNAc(b1-3)Gal(b1-4)GlcNAc(b1-3)Gal(b1-4)GlcNAc
Method in brief: as §1

[15] = target: Neu5Ac(a2-6)Gal(b1-4)GlcNAc(b1-3)Gal(b1-4)GlcNAc(b1-3)Gal(b1-4)GlcNAc(b1-2)Man(a1-3)[Neu5Ac(a2-6)Gal(b1-4)GlcNAc(b1-3)Gal(b1-4)GlcNAc(b1-3)Gal(b1-4)GlcNAc(b1-2)Man(a1-6)]GalNAc
Method in brief: as §1

[16] = target: Neu5Ac(a2-6)Gal(b1-4)GlcNAc(b1-3)Gal(b1-4)GlcNAc(b1-3)GalNAc
Method in brief: as §1

[17] = target: Neu5Ac(a2-6)Gal(b1-4)GlcNAc(b1-3)Gal(b1-4)GlcNAc(b1-3)[Neu5Ac(a2-6)Gal(b1-4)GlcNAc(b1-3)Gal(b1-4)GlcNAc(b1-6)]GalNAc
Method in brief: as §1

[18] = target: Neu5Ac(a2-6)Gal(b1-4)GlcNAc(b1-3)Gal(b1-4)GlcNAc(b1-6)[Gal(b1-3)]GalNAc
Method in brief: as §1

[19] = target: Neu5Ac(a2-6)Gal(b1-4)GlcNAc(b1-3)Gal(b1-4)[Fuc(a1-3)]GlcNAc(b1-3)Gal(b1-4)[Fuc(a1-3)]GlcNAc
Method in brief: as §1

[20] = target: Neu5Ac(a2-6)Gal(b1-4)GlcNAc(b1-3)GalNAc
Method in brief: as §1

[21] = target: Neu5Ac(a2-6)Gal(b1-4)GlcNAc(b1-3)[Neu5Ac(a2-6)Gal(b1-4)GlcNAc(b1-6)]GalNAc
Method in brief: as §1

[22] = target: Neu5Ac(a2-6)Gal(b1-4)GlcNAc(b1-6)GalNAc
Method in brief: as §1

[23] = target: Neu5Ac(a2-6)Gal(b1-4)GlcNAc(b1-6)[Gal(b1-3)GlcNAc(b1-3)]Gal(b1-4)Glc
Method in brief: as §1

[24] = target: Neu5Ac(a2-6)Gal(b1-4)GlcNAc(b1-6)[Gal(b1-3)]GalNAc
Method in brief: as §1

[25] = target: Neu5Ac(a2-6)Gal(b1-4)GlcNAc6S
Method in brief: as §1

Neu5Ac(a2-6)GalNAc = target: Neu5Ac(a2-6)GalNAc
Method in brief: as §1

[26] = target: Neu5Ac(a2-6)GalNAc(b1-4)GlcNAc
Method in brief: as §1

[27] = target: Neu5Ac(a2-6)GalNAc(b1-4)GlcNAc6S
Method in brief: as §1

[28] = target: Neu5Ac(a2-6)GlcNAc(b1-4)GlcNAc
Method in brief: as §1

[29] = target: Neu5Ac(a2-6)GlcNAc(b1-4)GlcNAc(b1-4)GlcNAc
Method in brief: as §1

B1: PX14343E-bfa-545-24-545 (Bacteroides fragilis) (protein)
chain: LDRYPQEELSDGSFWKTPDDANKVVSDLYGYLSTWDQDNDINSDNATMGIKWAAGNVSKGIYDPADQGWSGDYANVRQCNLILSKIDEIPDYPEADKTKALGQVYFFRAYIYFNLIRSFGDVPYIDKPLDLKDMEGITRMPRAEVYEKIMADFDKAIAALPTEWGASDYGRVTKGAAMAMKARAALYYGNWDTAATEAKNVMDLGLYELYDKDNTGKYAELFWEKADGCDEFILVTQFNYPDKTHYLMGWECFPTKGWGGMNPTQSLVDAFEDSEGAPISKSKIYDPTDPFKNRDPRLEVDILHDGEEMYGVTIKVAPLASSGSTGINQHNDATETGYYGQKWLDPSLDPLSDGWNMGKDWVHIRYAEVLLTYAEAKNELQGLDPEAFDAVNQVRRRVGMPELQNTDPSKPTYCATQDDLRQRIRNEWRVEFCLEGGKRMWDIRRWGIAKDVLNAPFEGLKYKIVDNPNDPDKKVDGGKMCILYQGDPIILSGSRYSDNNYLFPVPQSEIDLNPALTQNPGY
[1]
  glycan array binding signal (z-score): 0.517
[2]
  glycan array binding signal (z-score): -0.641
[3]
  glycan array binding signal (z-score): 0.294
[4]
  glycan array binding signal (z-score): -0.81
[5]
  glycan array binding signal (z-score): -0.41
[6]
  glycan array binding signal (z-score): 0.074
[7]
  glycan array binding signal (z-score): -0.779
[8]
  glycan array binding signal (z-score): 0.142
[9]
  glycan array binding signal (z-score): 0.176
[10]
  glycan array binding signal (z-score): 0.48
[11]
  glycan array binding signal (z-score): -0.391
[12]
  glycan array binding signal (z-score): -0.139
[13]
  glycan array binding signal (z-score): 1.12
[14]
  glycan array binding signal (z-score): -0.438
[15]
  glycan array binding signal (z-score): 1.25
[16]
  glycan array binding signal (z-score): -0.076
[17]
  glycan array binding signal (z-score): 2.92
[18]
  glycan array binding signal (z-score): -0.008
[19]
  glycan array binding signal (z-score): 0.319
[20]
  glycan array binding signal (z-score): 0.064
[21]
  glycan array binding signal (z-score): 2.89
[22]
  glycan array binding signal (z-score): 0.56
[23]
  glycan array binding signal (z-score): -0.484
[24]
  glycan array binding signal (z-score): -0.085
[25]
  glycan array binding signal (z-score): -0.277
Neu5Ac(a2-6)GalNAc
  glycan array binding signal (z-score): -0.291
[26]
  glycan array binding signal (z-score): 0.426
[27]
  glycan array binding signal (z-score): 0.135
[28]
  glycan array binding signal (z-score): -0.557
[29]
  glycan array binding signal (z-score): -0.709
